A short description of the data set: Caco-2 passive permeability. The format is in vitro ADME. As to conditions: human, internal data, calibration reference, read-out: Reference Papp Caco-2 passive permeability of propranolol.

These results are taken from publication PMC10460728 (Journal of Pharmacokinetics and Pharmacodynamics, 2023).

Molecules are shown by their SMILES.

By Papp is commonly meant the rate of passage across a membrane or cell layer, normalised by area and donor concentration.

In the case of `CC(C)NCC(O)COc1cccc2ccccc12` (stereo not shown) [propranolol], the Papp was determined as 14.8 ×10⁻⁶ cm/s.
